Measured values from PubChem BioAssay AID540275 (National Center for Advancing Translational Sciences (NCATS), 2011).
The campaign covered roughly 320,000 compounds. About 620 (0.19%) were called active. This list was built around the results that the source calls inconclusive (neither active nor inactive); the mix of calls is not that of the screen. Rule as the data show it: active = activation above about 80%; inconclusive = between about 30% and that limit; inactive = weaker than that.

By UniProt entry, the sequences of proteins in these tests, tags left out.
UniProt Q8NER1, whole entry, looked up: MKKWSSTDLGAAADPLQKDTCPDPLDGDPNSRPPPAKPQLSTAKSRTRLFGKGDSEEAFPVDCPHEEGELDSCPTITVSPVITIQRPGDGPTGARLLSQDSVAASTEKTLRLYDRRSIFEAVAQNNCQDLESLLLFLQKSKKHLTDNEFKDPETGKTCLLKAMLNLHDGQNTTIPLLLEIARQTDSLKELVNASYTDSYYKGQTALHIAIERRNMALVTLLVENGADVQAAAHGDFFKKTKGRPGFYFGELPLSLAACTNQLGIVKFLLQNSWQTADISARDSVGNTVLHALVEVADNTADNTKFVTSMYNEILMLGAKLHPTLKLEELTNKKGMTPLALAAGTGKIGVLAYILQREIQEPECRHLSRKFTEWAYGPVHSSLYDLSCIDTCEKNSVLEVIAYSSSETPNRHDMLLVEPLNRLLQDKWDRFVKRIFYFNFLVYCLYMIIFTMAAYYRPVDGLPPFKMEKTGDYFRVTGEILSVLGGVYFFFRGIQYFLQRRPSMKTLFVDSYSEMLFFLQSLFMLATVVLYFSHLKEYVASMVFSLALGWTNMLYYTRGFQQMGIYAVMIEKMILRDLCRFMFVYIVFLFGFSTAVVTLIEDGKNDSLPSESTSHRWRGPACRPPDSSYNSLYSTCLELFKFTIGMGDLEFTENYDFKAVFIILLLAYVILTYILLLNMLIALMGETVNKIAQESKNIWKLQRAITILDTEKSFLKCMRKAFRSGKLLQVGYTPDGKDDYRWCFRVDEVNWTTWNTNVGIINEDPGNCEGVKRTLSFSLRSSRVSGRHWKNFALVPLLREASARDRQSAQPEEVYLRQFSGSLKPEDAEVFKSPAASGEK

What follows are molecules tested against Transient receptor potential cation channel subfamily V member 1 (Homo sapiens) (UniProt Q8NER1) (assay: HTS Assay for Compounds that Act as Agonists of the Vanilloid Receptor 1). Settings: TRPV1-expressing cells, Fluo-8 calcium influx, agonist mode; at 8.33 µM, stronger effect = higher value.
From the text: The transient receptor potential ion channel, family V, number 1, (TRPV1) is one of the most important molecular transducers of painful stimuli and a potential target for analgesic drug development. Although recent clinical trials with orthosteric antagonists have not produced a successful drug because of a hyperthermia side effect and their tendency to block thermal noxious pain, this ion channel is undeniably well placed in the pain pathway, and the idea of blocking pain signals before they enter the CNS is an excellent concept and of proven efficacy when TRPV1 agonists are used. We propose a new approach involving allosteric modulation to impose an activity-dependent constraint within the context of inflammation and tissue damage that would alter the responsiveness of the channel in a way that an orthosteric vanilloid antagonist cannot achieve. We believe that the allosteric modulator approach has not been explored for this target. The main goal of this proposal is to identify additional, new, potent allosteric modulators of TRPV1 that can be used to investigate TRPV1 function. Our recent report provides evidence of proof of concept, but the compounds are just at the edge of utility in terms of potency. […] The question of whether they can be used as analgesic agents is complex, but if suitable compounds are identified then testing for analgesic properties will be conducted. NIH Chemical Genomics Center [NCGC] NIH Molecular Libraries Probe Centers Network [MLPCN] MLPCN Grant: MH089480-1A1 Assay Submitter (PI): Michael Iadarola, National Institute of Dental and Cranofacial Research
Upon TRPV1 activation in TRPV1 cells, the channel opens and extracellular cations flow through the channel into the cytosol. A calcium binding dye (Fluo-8) becomes fluorescent when bound to calcium. This dye is pre-loaded into cells and is used as a marker for calcium influx. The amount of accumulated calcium is precisely quantified using the FDSS kinetic reader and the calcium dye. For the HTS assay, freshly prepared cells are plated at a density of 2000/well in 3 ul medium in 1536-well plates and cultured overnight at 35.5C. Cells will be loaded with 1 ul of the homogeneous calcium dye (ABD Bioquest) at room temperature for 40 to 90 minutes. Plates will be loaded into the FDSS kinetic reader and a 1 sec / cycle for 10 second baseline signal will be measured. Compound library will then be added with a pintool at 23 nl and measured kinetically for 3 minutes. This portion of the read is considered the agonist portion of the screen. Following the 3 minutes of incubation, an on board pipettor will deliver 1 ul of capsaicin for a final concentration equal to the EC20. Signal will be measured kinetically for an additional 2 minutes. This portion of the read is considered the allosteric enhancer portion of the screen. The FDSS reader has a standard filter set capable of measuring calcium bound Fluo-8 (ex=480 and em=520 nm).
Also: 0% is about no effect.

| SMILES | activation |
| --- | --- |
| O=C(NC(=S)NC1CCCc2ccccc21)c1ccco1 (centres undefined) | inconclusive: 49% |
| O=C(NCCSCc1ccc(Cl)cc1Cl)c1ccc(CN2CCOCC2)cc1 | inconclusive: 53.2% |
| CCc1ccc(NC(=O)CSc2ccc(-c3ccccn3)nn2)cc1 | inconclusive: 40% |
| O=c1cnn(-c2ccccc2)c(-c2ccccc2)c1 | inconclusive: 45.3% |
| Cc1ccc2c(C)nc(Nc3nc(CSc4nc5ccccc5[nH]4)cc(=O)[nH]3)nc2c1 | inactive: -0.207% |
| CCn1cc(C(=O)N2CCN(c3cccc(Cl)c3)CC2)c2cc(OC)c(OC)cc2c1=O | inactive: 0.151% |
| Cc1cc(CSc2ccccc2)ccc1NC(=O)c1ccc(CN2CCOCC2)cc1 | inconclusive: 45% |
| NNC(=O)c1nc[nH]c1C(=O)Nc1ccccc1 | inconclusive: 34% |
| C/C=C/C1=CC(=O)C[C@H](c2ccc(F)cc2)C1 | inconclusive: 32.8% |
| CCc1cccc(NC(=O)CCS(=O)(=O)c2cccc3nonc23)c1 | inconclusive: 41.9% |
| O=C(CCN1C(=O)/C(=C/c2ccccc2F)SC1=S)Nc1cccnc1 | inconclusive: 39.4% |
| C=CCn1c(SCC(=O)c2ccc(O)c(O)c2)nnc1-c1cccc(Cl)c1 | inconclusive: 30.7% |
| Cc1cc(C)c(O)c(-c2cc(C(=O)Nc3ccc(S(=O)(=O)N4CCOCC4)cc3)[nH]n2)c1 | inactive: -0.0948% |
| C=CCN(CC=C)c1nc2ccccc2nc1C(C#N)C(=O)OCCOC (centres undefined) | inconclusive: 76% |
| CCOC(=O)c1sc(NC(=O)Cc2ccc(F)cc2)nc1C | inconclusive: 47% |
| Brc1ccc(C2=CC(c3cccs3)n3ncnc3N2)cc1 (centres undefined) | inconclusive: 54.9% |
| C/C(Cn1cnc([N+](=O)[O-])n1)=N\NC(=O)c1cccc(F)c1 | inconclusive: 31.9% |
| CCOC(=O)N1CCN(C(=O)CSCc2ccc(Br)cc2)CC1 | inconclusive: 45.5% |
| COC(=O)N/N=C/c1ccc(OS(=O)(=O)c2ccc(C)cc2)c(OC)c1 | inconclusive: 33.5% |
| Cc1cc(N2CCOCC2)nc2ccc(NC(=O)CCC(=O)N3CCCCC3)cc12 | inactive: -1.68% |
| O=C(c1ccncc1)N1N=C2CCCCCC2C1(O)C(F)(F)F (centres undefined) | inactive: 0.733% |
| O=C(Nc1ccccc1)c1c(F)c(F)c(F)c(F)c1F | inconclusive: 43.2% |
| Cc1ccc(-n2ncc3c2CCCC3NC(=O)c2ocnc2C)cc1C (centres undefined) | inconclusive: 66.4% |

| SMILES | activation |
| --- | --- |
| COc1ccc(NC(=O)c2ccc(OCC3CCCO3)cc2)cc1Cl (centres undefined) | inconclusive: 46.4% |
| NC(=O)CSc1nnc(Cn2cnc3ccccc32)o1 | inactive: -1.14% |
| COc1ccc(-n2nc(C(=O)NCC(=O)N3CCCCCC3)c3ccccc3c2=O)cc1Cl | inconclusive: 55.1% |
| Cc1ncoc1C(=O)N1CCCC(C(=O)c2cccc3ccccc23)C1 (centres undefined) | inconclusive: 30.7% |
| CSc1cccc(NC(=O)OC2CCCCCCCCCCC2)c1 | inconclusive: 51.8% |
| COc1cccc(NC(=O)c2ccc(N3C(=O)C4CC=C(C)CC4C3=O)cc2)c1 (centres undefined) | inconclusive: 71.4% |
| COc1ccc(CCC(=O)N2CCN(S(=O)(=O)c3cccc(Cl)c3)CC2)cc1 | inactive: 3.59% |
| CCN(CC(=O)NC(=O)NC1CCCC1)Cc1ccccc1 | inconclusive: 32.5% |
| CCC(C)(C)n1nnnc1C(c1ccc2ncccc2c1)N1CCCC(C)C1 (centres undefined) | inconclusive: 32.3% |
| Oc1ccc(/C=N/N2CCN(C3c4ccccc4-c4ccccc43)CC2)cc1O | inconclusive: 30.5% |
| CC1(C)Cc2cccc(OCC(=O)OCC(=O)NCc3ccc(F)cc3)c2O1 | inconclusive: 32.6% |
| Cc1ccnc(NC(=O)c2ccc(Cl)c(S(=O)(=O)N3CCCC3)c2)c1 | inconclusive: 56.9% |
| COC(=O)c1ccccc1NC(=S)NC(=O)c1ccc2c(c1)OCO2 | inconclusive: 31.9% |
| O=C(CCNC(=O)c1ccc(Br)cc1)NCC1COc2ccccc2O1 (centres undefined) | inactive: 4.35% |
| Cc1c(C(=O)NCC2CCCO2)oc2ccc(S(=O)(=O)N3CCCC3)cc12 (centres undefined) | inconclusive: 46.8% |
| COc1cccc(CNC(=S)Nc2cccc(Cl)c2C)c1 | active: 86.6% |
| COCc1cc(=O)n2[nH]c(-c3cccc(Br)c3)cc2n1 | inactive: -1.38% |
| CCc1nc(N2CCN(C(C)=O)CC2)c2c3c(sc2n1)CC(C(C)(C)C)CC3 (centres undefined) | inconclusive: 58.8% |
| O=C(/C=C/c1cn(-c2ccccc2)nc1-c1cccnc1)c1ccco1 | inconclusive: 47.5% |
| CCOC(=O)[C@H]1[C@H]2COc3ccc(C)cc3[C@@H]2N2C(=O)c3ccccc3NC(=O)[C@@]12C | active: 89.7% |
| O=C(Nc1ccc(S(=O)(=O)N2CCOCC2)cc1)c1ccccc1 | inconclusive: 30.7% |
| Fc1ccccc1Oc1nc(-c2ccncc2)nc2ccccc12 | inconclusive: 34.3% |
| Cc1ccc(C(=O)C2=C(O)C(=O)N(CCCn3ccnc3)C2c2ccc(OC(C)C)cc2)o1 (centres undefined) | inactive: -1.72% |

| SMILES | activation |
| --- | --- |
| O=C(Cc1ccc([N+](=O)[O-])cc1)Nc1cc(C(F)(F)F)cc(C(F)(F)F)c1 | inconclusive: 44.6% |
| CCOCCCNC(=S)N(Cc1ccco1)Cc1cc2cc3c(cc2[nH]c1=O)OCCO3 | inactive: 7.16% |
| Cc1ccc2c(c1)nnn2C1CCN(C(=O)C23CC4CC(CC(C4)C2)C3)CC1 | inconclusive: 31.1% |
| COc1ccc2c(=O)c(-c3nc(C)cs3)coc2c1 | inactive: 11.1% |
| COc1ccc(Cn2c(CCC(=O)Nc3ccc(C)c(C)c3)nc3cccnc32)cc1 | inactive: -2.47% |
| Cn1cc(C(=O)N/N=C/c2c(O)ccc3ccccc23)ccc1=O | inconclusive: 53.8% |
| CCCCNC(=O)c1cc2c(=O)n3cccc(C)c3nc2n(Cc2ccccc2)c1=N | inconclusive: 41.3% |
| CC(c1ccccc1)N1C(=O)c2ccc(C(=O)NCc3cccnc3)cc2C1=O (centres undefined) | inconclusive: 46.3% |
| Clc1ccc(SCc2nc3ccccc3[nH]2)cc1 | inconclusive: 66.3% |
| Cc1ccc(SCC(=O)NCc2ccccc2)cc1 | inconclusive: 42.6% |
| COc1ccc2nc(NC(=O)CS(=O)(=O)c3ccc(C)cc3)sc2c1 | inactive: -0.948% |
| COc1ccc(NC(=O)CSc2nc3ccccc3nc2N2CCOCC2)cc1 | inconclusive: 48.5% |
| O=C(COC(=O)/C=C/c1cccc(C(F)(F)F)c1)NCc1cccs1 | inconclusive: 37.8% |
| Cc1ccc(N(C(=O)c2nsc(Cl)c2Cl)C(C(=O)NC2CCCC2)c2ccc(O)cc2)cc1C (centres undefined) | inconclusive: 30.4% |
| CCCCNc1nc2cccnc2s1 | inactive: -6.88% |
| Cc1cccc(NC(=O)c2ccc(Cl)c(S(=O)(=O)N3CCCC3)c2)n1 | inconclusive: 35.5% |
| CCOc1cc(/C=C2/NC(=O)NC2=O)cc(Br)c1OCc1ccc(C(=O)O)cc1 | inactive: 1.4% |
| O=C(N/N=C/c1ccccn1)c1ccc(Br)cc1 | inconclusive: 38.7% |
| COc1ccc(C)cc1NC(=O)CNC(c1ccccc1)c1ccccc1 | inconclusive: 40.4% |
| O=C(C1=C[C@@H](c2ccc(Br)cc2)C[C@@H](OCc2ccc(CO)cc2)O1)N1CCN(Cc2ccccc2)CC1 | inconclusive: 69.1% |
| O=C(Nc1ccc(S(=O)(=O)N2CCCCC2)cc1)c1ccco1 | inconclusive: 50.7% |
| COc1ccc(C(=O)NCC2OCCc3ccccc32)c(O)c1 (centres undefined) | inconclusive: 56.4% |
| Cc1ccc2nc(-c3ccccn3)oc2c1 | inactive: 2.96% |

For convenience, part of the list above.

| SMILES | activation |
| --- | --- |
| COc1ccc2nc(NC(=O)CS(=O)(=O)c3ccc(C)cc3)sc2c1 | inactive: -0.948% |
| COc1ccc(NC(=O)CSc2nc3ccccc3nc2N2CCOCC2)cc1 | inconclusive: 48.5% |
| O=C(COC(=O)/C=C/c1cccc(C(F)(F)F)c1)NCc1cccs1 | inconclusive: 37.8% |
| Cc1ccc(N(C(=O)c2nsc(Cl)c2Cl)C(C(=O)NC2CCCC2)c2ccc(O)cc2)cc1C (centres undefined) | inconclusive: 30.4% |
| CCCCNc1nc2cccnc2s1 | inactive: -6.88% |

Further entries

| SMILES | activation |
| --- | --- |
| Cc1cc(C)c(Cn2ncn(-c3ccc(Br)cc3)c2=O)c(C)c1 | inconclusive: 37.8% |
| CC1(C)CC(NC(=O)C2CCN(S(=O)(=O)c3ccc(F)cc3)CC2)CC(C)(C)N1 | inactive: -1.83% |
| Cc1ccc(NC(=O)COC(=O)CCOc2ccccc2C)cc1 | inconclusive: 46.8% |
| CC(=O)NCCc1nc2ccccc2n1Cc1ccc(Cl)cc1 | inconclusive: 67.2% |
| CCOC(=O)Cc1csc(SCC(=O)c2c(N)n(CC(C)C)c(=O)n(C)c2=O)n1 | inactive: 3.5% |
| O=C(c1ccc(S(=O)(=O)Cc2ccccc2Cl)c([N+](=O)[O-])c1)N1CCN(c2ccccn2)CC1 | inactive: -0.68% |
| COc1ccc(-c2nc(CCNC(=O)c3cccs3)cs2)cc1 | inconclusive: 34.9% |
| O=C(c1ccco1)N1CCN(C(=O)c2ccccc2OC(=O)C23CC4CC(CC(C4)C2)C3)CC1 | inconclusive: 50.1% |
| Cc1ccccc1Cn1cc(CCC(=O)N2CCOCC2)c2ccccc21 | inconclusive: 68.2% |
| C=CC(=O)N(CCC)C(c1ccccc1)c1ccccc1OC (centres undefined) | inconclusive: 57.6% |
| CCc1ccc(-c2csc(-c3c[nH]c4ccccc34)n2)cc1 | inactive: -1.26% |
| COC(=O)c1[nH]c2ccccc2c1NC(=O)CN1CCN(c2cccc(Cl)c2)CC1 | inconclusive: 39.3% |
| COc1ccccc1CNC(=O)Cn1cccc1C(=O)c1ccccc1 | inconclusive: 31% |
| CC(=O)c1cc(C#N)c(SCCC(C)C)nc1C | inactive: 15.9% |
| Cc1cc(NCCCn2ccnc2)n2ncc(-c3ccc(Cl)cc3)c2n1 | inactive: 2.38% |
| COC(=O)c1ccccc1NC(=O)c1ccc(COc2ccc(C)c(C)c2)o1 | inactive: -1.08% |
| CCC(C)(C)n1nnnc1C(c1ccncc1)N1CCC(Cc2ccccc2)CC1 (centres undefined) | inconclusive: 34.7% |
| COc1ccc(OC)c(Cc2nnc(CCC(=O)NCc3ccc(C)s3)o2)c1 | inconclusive: 63.5% |
| COc1ccc(S(=O)(=O)N2CCN(C(=O)c3cc(-c4ccccc4OC)n[nH]3)CC2)cc1 | active: 81.9% |
| C=Cc1ccc(Cn2nc(-c3ccccc3)ccc2=O)cc1 | inconclusive: 62.4% |
